Data: patent US7893092B2, “Anthranilamide derivatives as insecticides” (Syngenta Crop Protection, Inc., priority 2004, dated 2011)
Some entries share one result that the patent states for a list of compounds.

Test system: Heliothis virescens eggs
Assay: Activity against Heliothis virescens, application to eggs (Example B4)
Format: in vivo
Settings: eggs on cotton sprayed, 400 ppm active ingredient, 8 days

| Compound | percentage hatching rate of the eggs and survival rate of the caterpillars (% activity) |
| --- | --- |
| Cc1cc(Cl)cc(C(=O)NCc2ccccc2S(C)(=O)=NC(=O)C(F)(F)F)c1NC(=O)c1cc(C(F)(F)F)nn1-c1ncccc1Cl (centres unmarked) [T35.1.1] | over 80% |
| Cc1cc(Cl)cc(C(=O)NCCCCCCS(C)(=O)=NC(=O)C(F)(F)F)c1NC(=O)c1cc(C(F)(F)F)nn1-c1ncccc1Cl (centres unmarked) [T47.1.1] | over 80% |
